Data reported in US9730889B2, “Steroid-sparing effects of beta-adrenergic inverse agonists and uses thereof” (University of Houston System, priority 2011, dated 2017).
At least one compound was matched to its structure with a doubt left.

Tested on: BAL eosinophils
Experiment: BAL eosinophil numbers in OVA sensitized and challenged mice
Format: in vivo, BALB/c mice
Settings: dexamethasone 4 mg vs nadolol 250 ppm, P<0.05
Excerpt: Six-week to eight-week-old BALB/c mice (Jackson Animal Laboratory, Bar Harbor, Me.) were housed under specific pathogen-free conditions.
Mice were immunized against allergen by means of sensitization (once weekly intraperitoneal injection on days 0, 7, and 14) and challenge (once daily intranasal instillation for 5 days on days 41-45) with ovalbumin (OVA) as described (FIG. 1) (19).
Untreated sensitized and challenged mice or mice that had not undergone the sensitization and challenge process, received vehicle and were fed with normal mouse chow. […] Experimental mice were sacrificed on day 46.
Brochoalveolar lavage (BAL) fluid was acquired via infusion and recovery of cold PBS (2×1 ml) through the tracheal cannula from euthanized (pentobarbital 0.1 ml of 65 mg/ml) mice. Brochoalveolar lavage total leukocyte count and differentiated cell counts were performed as described (19).
Leukocytes and cytokines were measured in BAL fluid of OVA-sensitized mice 24 hours after the last of five daily nasal challenges with OVA (FIG. 1).

## C[C@@H]1C[C@H]2[C@@H]3CCC4=CC(=O)C=C[C@]4(C)[C@@]3(F)[C@@H](O)C[C@]2(C)[C@@]1(O)C(=O)CO [dexamethasone]
  suppression of eosinophilic inflammation, high-dose comparison: substantially more effective
